In patent publication US20170363632A1, “Biomarker Kit for Metastatic Breast Cancer Prognosis and Uses Thereof” (University of Maryland, Baltimore, priority 2016, published 2017):
Results are given in words; binding and its absence hold for the method and conditions named. Some entries that bind do so weakly or less than the wild type. Tags and fused reporters may be left off the sequences shown.

Sequences of proteins named here, by UniProt entry; tags and fusion partners are left off. Residues count along the entry.
UniProt O00459, residues 4-80: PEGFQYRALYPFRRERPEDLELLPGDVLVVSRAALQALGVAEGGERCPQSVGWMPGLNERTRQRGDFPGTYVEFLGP

Key:
HIS-PI3K/p85-SH3 (human) [1] = biological target: HIS-PI3K/p85-SH3 (human) (UniProt O00459); assay: GST pull-down, immunoblot with His-tag antibody (FIG. 6C)
HIS-PI3K/p85-SH3 (human) [2] = biological target: HIS-PI3K/p85-SH3 (human) (UniProt O00459); assay: GST pull-down, immunoblot with His-tag antibody

B1: GST-obscurin-PH (protein, human, UniProt Q5VST9 5895-6004, looked up, not shown: a dimerising Fc or GST)
chain: EPIRQGHFIVWEGAPGARMPWKGHNRHVFLFRNHLVICKPRRDSRTDTVSYVFRNMMKLSSIDLNDQVEGDDRAFEVWQEREDSVRKYLLQARTAIIKSSWVKEICGIQQ
**Q.** Which binding (HIS-PI3K/p85-SH3 (human) [1]) does the source give for B1 here?
**A.** binds

**Q.** And the binding (HIS-PI3K/p85-SH3 (human) [2])?
**A.** binds
